Results on 26 compounds are retold here after PubChem BioAssay AID248 (DTP/NCI, 2004).

The experiment deals with L1210 leukemia ip in BDF1 mice, survival T/C. In words: NCI In Vivo Anticancer Drug Screen. Data for tumor model L1210 Leukemia (intraperitoneal) in B6D2F1 (BDF1) mice. The conditions noted are these: T/C endpoint: mean survival time, higher T/C = longer survival.
Setting [1] is: dose: 300.0 mg/kg/injection, schedule: Q01DX001 (ip), vehicle: saline.
Where [2] appears, read: dose: 400.0 mg/kg/injection, schedule: Q01DX009 (ip), vehicle: saline with Tween-80.
Where [3] appears, read: dose: 200.0 mg/kg/injection, schedule: Q01DX001 (ip), vehicle: saline.
The mark [4] stands for this setting: dose: 400.0 mg/kg/injection, schedule: Q01DX001 (ip), vehicle: saline.
[5] abbreviates: dose: 200.0 mg/kg/injection, schedule: Q04DX003 (ip), vehicle: saline.
Setting [6] is: dose: 400.0 mg/kg/injection, schedule: Q04DX003 (ip), vehicle: saline.
Where [7] appears, read: dose: 25.0 mg/kg/injection, schedule: Q01DX009 (ip), vehicle: carboxymethylcellulose (CMC).
[8] abbreviates: dose: 400.0 mg/kg/injection, schedule: Q01DX001 (ip), vehicle: carboxymethylcellulose (CMC).
The mark [9] stands for this setting: dose: 400.0 mg/kg/injection, schedule: Q01DX009 (ip), vehicle: saline.
Where [10] appears, read: dose: 100.0 mg/kg/injection, schedule: Q04DX003 (ip), vehicle: saline with Tween-80.
[11] abbreviates: dose: 150.0 mg/kg/injection, schedule: Q01DX001 (ip), vehicle: saline.

The list is a part of this screen's results and no random one: it gathers tests that were run many times, whatever their T/C, doses with no T/C, and many T/C values between a quarter and a half above the control. Further doses and runs are listed elsewhere. T/C gives the treated animals as a percentage of the vehicle group. Some doses have a count of surviving animals in place of a T/C: the source holds a T/C of zero for them, seemingly a mark for toxic or unscored doses. Some doses without a T/C left all or most animals alive at the check, yet need not have been tolerated: survival well below the control is almost never listed, so the zero probably covers shortened survival too. Counts of survivors are from the toxicity check (mostly the fifth day) where no day follows; animals may have died later. Schedules are NCI's codes, taken here to give the interval after Q, in days (D) or hours (H), and the number of doses after X. Some schedules carry Z or #; the key to these is not given. For survival time, this PubChem deposit counts one and a half times the control or more as active, and values a quarter to a half above the control carry no call in these data; other NCI protocols may use other cut-offs. Some T/C values carry the count of animals alive at the toxicity check (mostly the fifth day); where none is given, no animal had died by that day.

On to `CN1CCCCC1CCN1c2ccccc2Sc2ccc(Br)cc21` (stereo not given), for which the survivor count was 0 of 6 (dose: 25.0 mg/kg/injection, schedule: Q01DX009 (ip), vehicle: saline) and 0 of 6 (dose: 50.0 mg/kg/injection, schedule: Q01DX009 (ip), vehicle: saline).

On to `O=S(=O)(O)SCCCNCCCNCCCSS(=O)(=O)O`, for which the survivor count (dose: 150.0 mg/kg/injection, schedule: Q04DX003 (ip), vehicle: saline) is listed as 4 of 6 and the survivor count under setting [1] was 0 of 6.

Turning to `CCOc1ccc(NC(=S)NC(=O)c2ccccc2F)cc1`, the survivor count runs as follows: (dose: 100.0 mg/kg/injection, schedule: Q01DX009 (ip), vehicle: saline with Tween-80) 6 of 6; under setting [2], 6 of 6.

For `CCCCSC(=N)N`, the survivor count under setting [3] was 0 of 6 and the survivor count under setting [4] is 0 of 6.

Take `CN(CCC(=O)c1ccccc1)C(C)(C)C`: the survivor count is listed as 0 of 6 under setting [5] and 0 of 6 under setting [6].

For `COc1cc(C=Nc2ccc(-c3nc(C)sc3C)cc2)ccc1N(CCCl)CCCl`, the T/C is 129 % of control (dose: 3.0 mg/kg/injection, schedule: Q01DX009 (ip), vehicle: carboxymethylcellulose (CMC)); 126 % of control (dose: 4.6 mg/kg/injection, schedule: Q01DX009 (ip), vehicle: carboxymethylcellulose (CMC)); 134 % of control [5 of 6 alive] (dose: 7.0 mg/kg/injection, schedule: Q01DX009 (ip), vehicle: carboxymethylcellulose (CMC)); 140 % of control (dose: 7.3 mg/kg/injection, schedule: Q01DX001 (ip), vehicle: carboxymethylcellulose (CMC)); 137 % of control (dose: 11.0 mg/kg/injection, schedule: Q01DX001 (ip), vehicle: carboxymethylcellulose (CMC)); 142 % of control (dose: 11.0 mg/kg/injection, schedule: Q01DX009 (ip), vehicle: carboxymethylcellulose (CMC)). For the same compound, the T/C was 127 % of control [5 of 6 alive] (dose: 11.1 mg/kg/injection, schedule: Q01DX009 (ip), vehicle: carboxymethylcellulose (CMC)); 142 % of control (dose: 16.6 mg/kg/injection, schedule: Q01DX009 (ip), vehicle: carboxymethylcellulose (CMC)); 138 % of control (dose: 25.0 mg/kg/injection, schedule: Q01DX001 (ip), vehicle: carboxymethylcellulose (CMC)); 146 % of control under setting [7]; 142 % of control (dose: 37.5 mg/kg/injection, schedule: Q01DX001 (ip), vehicle: carboxymethylcellulose (CMC)). Besides, the survivor count under setting [7] was 5 of 6; the survivor count (dose: 37.5 mg/kg/injection, schedule: Q01DX009 (ip), vehicle: carboxymethylcellulose (CMC)) was 5 of 6; the survivor count (dose: 100.0 mg/kg/injection, schedule: Q01DX001 (ip), vehicle: carboxymethylcellulose (CMC)) was 1 of 4; the survivor count (dose: 200.0 mg/kg/injection, schedule: Q01DX001 (ip), vehicle: carboxymethylcellulose (CMC)) is recorded as 0 of 4; the survivor count under setting [8] was 0 of 4.

As to `O=C1C=CC(=O)N1c1cccc(N2C(=O)C=CC2=O)c1`, the survivor count (dose: 32.0 mg/kg/injection, schedule: Q04DX003 (ip), vehicle: saline) is listed as 0 of 6.

`O=C(NOS(=O)(=O)O)c1ccccc1`: the survivor count was 6 of 6 (dose: 100.0 mg/kg/injection, schedule: Q01DX009 (ip), vehicle: saline); 0 of 6 under setting [3]; 0 of 6 under setting [4].

As to `CCOC(=O)c1cnc2c(OC)cccc2c1Cl`, the survivor count under setting [9] is given as 4 of 6.

`OCCC1(CCO)CCCCC1`: the survivor count by setting is: under setting [10], 6 of 6; (dose: 200.0 mg/kg/injection, schedule: Q01DX009 (ip), vehicle: saline with Tween-80) 3 of 6; under setting [2], 0 of 6.

Take `CCCCCC[N+](C)(C)CCOC(=O)C1C2CC3OC(=O)C1C3C2` (stereo not given): the survivor count reads like this: under setting [5], 2 of 4; under setting [6], 0 of 4.

Turning to `O=CO.[Co]`, the survivor count is, setting by setting: (dose: 100.0 mg/kg/injection, schedule: Q01DX001 (ip), vehicle: saline) 0 of 6; under setting [3], 0 of 6; under setting [4], 0 of 6.

For `CN(N=O)C(=O)NCCc1ccc(OC(=O)N(C)N=O)cc1`, for the setting “dose: 6.25 mg/kg/injection, schedule: Q01DX Z (ip), vehicle: carboxymethylcellulose (CMC)”, the T/C is 125 % of control. Moreover, the survivor count (dose: 100.0 mg/kg/injection, schedule: Q01DX Z (ip), vehicle: carboxymethylcellulose (CMC)) was 5 of 6.

As to `CC(O)[CH2][Sb]([Br])([Br])([c]1ccccc1)[c]1ccccc1` (stereo not given), the survivor count is reported as 0 of 3 (dose: 100.0 mg/kg/injection, schedule: Q04DX002 (ip), vehicle: saline with Tween-80); 0 of 3 (dose: 200.0 mg/kg/injection, schedule: Q04DX002 (ip), vehicle: saline with Tween-80); 0 of 3 (dose: 400.0 mg/kg/injection, schedule: Q04DX002 (ip), vehicle: saline with Tween-80).

As for `CC(=O)Nc1ccc(S(=O)(=O)C2=CC(=O)c3ccccc3C2=O)cc1`, the survivor count is on record as 1 of 6 under setting [3] and 0 of 6 under setting [4].

As for `Cc1ccc(Nc2cc(N)nc(N)n2)cc1`, the survivor count is, setting by setting: (dose: 50.0 mg/kg/injection, schedule: Q01DX Z (ip), vehicle: methylcellulose (MC)) 6 of 6; (dose: 100.0 mg/kg/injection, schedule: Q01DX Z (ip), vehicle: methylcellulose (MC)) 1 of 6; (dose: 200.0 mg/kg/injection, schedule: Q01DX Z (ip), vehicle: methylcellulose (MC)) 0 of 6.

Turning to `NCCCC(=O)NCCCCCCNCCCCCCNC(=O)CCCN`, the survivor count by setting is: under setting [3], 0 of 4; under setting [4], 0 of 4.

Turning to `NC(=O)c1cc2ccccc2[n+](Cc2ccc(F)cc2)c1`, the survivor count under setting [11] is given as 2 of 6 and the survivor count under setting [1] is given as 1 of 6.

Consider `Cc1cccc(SC(=O)Nc2ccccc2C(F)(F)F)c1`, for which the survivor count reads like this: (dose: 200.0 mg/kg/injection, schedule: Q01DX009 (ip), vehicle: Klucel (hydroxypropylcellulose) (HPC)) 3 of 6; (dose: 400.0 mg/kg/injection, schedule: Q01DX009 (ip), vehicle: Klucel (hydroxypropylcellulose) (HPC)) 2 of 6.

Turning to `Cc1ccc[n+](CC(=O)CCc2ccc(C(=O)C[n+]3cccc(C)c3)cc2)c1`, the survivor count is, setting by setting: (dose: 0.28 mg/kg/injection, schedule: Q04DX003 (ip), vehicle: saline) 2 of 6; (dose: 75.0 mg/kg/injection, schedule: Q01DX001 (ip), vehicle: saline) 0 of 6; under setting [11], 0 of 6; under setting [1], 0 of 6.

`COc1cc(C(=O)OC(C)CN2CCN(C(=O)c3cc(OC)c(OC)c(OC)c3)CC2)cc(OC)c1OC` (stereo not given): the survivor count under setting [9] is recorded as 4 of 6.

As for `CC(=O)N1Cc2cccn2Cc2cc3c(cc21)OCO3`, the survivor count by setting is: (dose: 50.0 mg/kg/injection, schedule: Q04DX002 (ip), vehicle: Klucel (hydroxypropylcellulose) (HPC)) 3 of 3; (dose: 100.0 mg/kg/injection, schedule: Q04DX002 (ip), vehicle: Klucel (hydroxypropylcellulose) (HPC)) 1 of 3.

`O=CNc1c(Cl)c(Cl)c2c(c1Cl)Cc1cc(Cl)ccc1-2`: the survivor count runs as follows: (dose: 300.0 mg/kg/injection, schedule: Q01DX009 (ip), vehicle: saline with Tween-80) 3 of 6; under setting [8], 4 of 4; under setting [4], 5 of 6.

With `CC(=N\NC(N)=S)/C(=N/NC(N)=S)c1ccccc1`, the survivor count (dose: 240.0 mg/kg/injection, schedule: Q01DX Z (ip), vehicle: carboxymethylcellulose (CMC)) was 5 of 6.

`Cc1coc(NS(=O)(=O)c2ccc(N=Nc3ccc(O)c4ncccc34)cc2)c1C`: under setting [4], the survivor count is 3 of 6.

With `[Cl][Ni].[NH-]C(Cc1ccccc1)C(=O)O` (stereo not given), the survivor count reads like this: under setting [10], 0 of 3; (dose: 200.0 mg/kg/injection, schedule: Q04DX003 (ip), vehicle: saline with Tween-80) 0 of 3; (dose: 400.0 mg/kg/injection, schedule: Q04DX003 (ip), vehicle: saline with Tween-80) 0 of 3.
